{"source": "patent US20050158838A1", "binders": {"B1": {"name": "phage isolate 5-A11 display polypeptide (protein, not shown: large carriers)", "chain": "AEWHPQFSSPSASRPSEGPCHPQFPRCYIENLDEFRPGGSGGDLNDVYSERMAMWGAQSDGGGSTEHAEGGSADPSYIEGRIVGSA"}, "B2": {"name": "phage isolate 5-B05 display polypeptide (protein, not shown: large carriers)", "chain": "B1 chain with D43S, N45D, V47D, Y48R, S49T, E50V, R51S, M52P, A53K, M54F"}, "B3": {"name": "phage isolate 5-A01 display polypeptide (protein, not shown: large carriers)", "chain": "AEWHPQFSSPSASRPSEGPCHPQFPRCYIENLDEFRPGGSGGDRMYQLDKTGFMIGAQSDGGGSTEHAEGGSADPSYIEGRIVGSA"}, "B4": {"name": "phage isolate 5-A08 display polypeptide (protein, not shown: large carriers)", "chain": "B1 chain with L44M, N45F, D46S, V47E, Y48E, S49D, E50R, R51M, A53Q, W55Q"}, "B5": {"name": "phage isolate 5-H11 display polypeptide ((Asp)4-Lys-containing recognition sequence) (protein, not shown: large carriers)", "chain": "AEWHPQFSSPSASRPSEGPCHPQFPRCYIENLDEFRPGGSGGMGDDDDKIYVYKTGAQSDGGGSTEHAEGGSADPSYIEGRIVGSA"}, "B6": {"name": "phage isolate 5-F08 display polypeptide (unselected control) (protein, not shown: large carriers)", "chain": "AEWHPQFSSPSASRPSEGPCHPQFPRCYIENLDEFRPGGSGGAVLSNVMHSDDWTGAQSDGGGSTEHAEGGSADPSYIEGRIVGSA"}}, "target": "streptavidin (immobilized on polystyrene magnetic beads or microtiter wells) (UniProt P22629)", "experiment": "phage ELISA, phage bound to immobilized streptavidin", "note": "Numbering of substitutions follows the chain as printed. Results are given in words; binding and its absence hold for the method and conditions named. Some binding calls cover weakened binding; strength is not graded here.", "data": [{"binder": "B1", "values": [{"measurement": "binding", "value": "binds"}]}, {"binder": "B2", "values": [{"measurement": "binding", "value": "binds"}]}, {"binder": "B3", "values": [{"measurement": "binding", "value": "binds"}]}, {"binder": "B4", "values": [{"measurement": "binding", "value": "binds"}]}, {"binder": "B5", "values": [{"measurement": "binding", "value": "binds"}]}, {"binder": "B6", "values": [{"measurement": "binding", "value": "binds"}]}]}
